For 92 sequences, binding signal results are on record in paper PMC7862700.

Chains of the proteins cited; added tags and fusions are not shown. Lines headed by an entry give the natural chain unless they say otherwise; changes in a name come on top.
UniProt P32519: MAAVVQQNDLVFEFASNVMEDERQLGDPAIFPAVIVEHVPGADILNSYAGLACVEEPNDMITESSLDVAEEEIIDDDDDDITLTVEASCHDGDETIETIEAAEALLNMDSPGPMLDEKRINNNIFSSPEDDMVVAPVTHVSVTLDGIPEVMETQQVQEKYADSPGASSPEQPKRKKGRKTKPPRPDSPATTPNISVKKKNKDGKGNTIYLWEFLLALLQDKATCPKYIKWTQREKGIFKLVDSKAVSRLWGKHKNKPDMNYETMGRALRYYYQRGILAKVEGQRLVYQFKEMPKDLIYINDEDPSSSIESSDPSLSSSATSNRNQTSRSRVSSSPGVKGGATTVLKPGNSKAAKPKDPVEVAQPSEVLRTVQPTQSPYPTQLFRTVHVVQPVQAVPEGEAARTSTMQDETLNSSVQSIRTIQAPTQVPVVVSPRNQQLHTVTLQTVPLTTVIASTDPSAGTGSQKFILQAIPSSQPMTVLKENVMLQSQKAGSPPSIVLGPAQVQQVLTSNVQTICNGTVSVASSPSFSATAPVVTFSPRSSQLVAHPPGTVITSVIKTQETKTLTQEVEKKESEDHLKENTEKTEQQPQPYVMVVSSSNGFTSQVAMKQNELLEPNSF
UniProt P50549: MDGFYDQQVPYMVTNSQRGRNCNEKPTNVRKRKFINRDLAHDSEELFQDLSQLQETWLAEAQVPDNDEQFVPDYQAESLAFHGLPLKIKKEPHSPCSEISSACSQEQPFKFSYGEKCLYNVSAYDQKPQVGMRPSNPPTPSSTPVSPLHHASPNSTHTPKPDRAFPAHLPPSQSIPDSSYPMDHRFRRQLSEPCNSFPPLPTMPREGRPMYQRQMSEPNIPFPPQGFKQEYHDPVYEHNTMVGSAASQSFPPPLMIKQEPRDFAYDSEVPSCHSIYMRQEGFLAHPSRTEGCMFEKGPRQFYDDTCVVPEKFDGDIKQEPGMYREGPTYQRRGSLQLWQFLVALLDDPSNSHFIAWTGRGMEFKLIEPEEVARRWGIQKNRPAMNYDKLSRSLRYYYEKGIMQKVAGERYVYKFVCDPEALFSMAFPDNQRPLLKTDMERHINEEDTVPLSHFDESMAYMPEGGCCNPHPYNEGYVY

Experiment in all cases: DAPPL (digital affinity profiling via proximity ligation, sequencing)
Conditions in all cases: 10 mM Tris-HCl pH 7.5, 50 mM NaCl, 1 mM DTT, 4% glycerol, room temperature, 30 min; GST-TFs on glutathione beads, 16-mer random dsDNA library, 0.1% …; high values mean tight binding; double strand, one strand shown; scale: fold enrichment (6-mer frequency, TF over GST control)

Assay [1] deals with ELF1 (UniProt P32519).
In assay [2] the target is T1, ETV4 (UniProt P43268).
T1 sequence: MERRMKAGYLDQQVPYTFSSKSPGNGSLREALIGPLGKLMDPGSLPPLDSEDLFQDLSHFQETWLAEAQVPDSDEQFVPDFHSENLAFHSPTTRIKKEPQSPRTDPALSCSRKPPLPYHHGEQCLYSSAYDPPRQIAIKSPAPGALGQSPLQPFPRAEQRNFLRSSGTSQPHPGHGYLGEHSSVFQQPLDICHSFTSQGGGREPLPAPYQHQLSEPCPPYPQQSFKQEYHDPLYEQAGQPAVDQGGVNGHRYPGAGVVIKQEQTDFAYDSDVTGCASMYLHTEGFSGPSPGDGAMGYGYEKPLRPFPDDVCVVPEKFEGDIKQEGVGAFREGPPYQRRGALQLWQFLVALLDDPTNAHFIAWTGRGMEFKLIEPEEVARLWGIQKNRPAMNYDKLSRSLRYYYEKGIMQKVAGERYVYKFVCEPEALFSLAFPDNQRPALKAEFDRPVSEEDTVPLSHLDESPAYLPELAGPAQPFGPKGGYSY

Assay [3] has as its target ETV1 (UniProt P50549).
In assay [4] the target is T2, ERF (UniProt P50548).
T2 sequence: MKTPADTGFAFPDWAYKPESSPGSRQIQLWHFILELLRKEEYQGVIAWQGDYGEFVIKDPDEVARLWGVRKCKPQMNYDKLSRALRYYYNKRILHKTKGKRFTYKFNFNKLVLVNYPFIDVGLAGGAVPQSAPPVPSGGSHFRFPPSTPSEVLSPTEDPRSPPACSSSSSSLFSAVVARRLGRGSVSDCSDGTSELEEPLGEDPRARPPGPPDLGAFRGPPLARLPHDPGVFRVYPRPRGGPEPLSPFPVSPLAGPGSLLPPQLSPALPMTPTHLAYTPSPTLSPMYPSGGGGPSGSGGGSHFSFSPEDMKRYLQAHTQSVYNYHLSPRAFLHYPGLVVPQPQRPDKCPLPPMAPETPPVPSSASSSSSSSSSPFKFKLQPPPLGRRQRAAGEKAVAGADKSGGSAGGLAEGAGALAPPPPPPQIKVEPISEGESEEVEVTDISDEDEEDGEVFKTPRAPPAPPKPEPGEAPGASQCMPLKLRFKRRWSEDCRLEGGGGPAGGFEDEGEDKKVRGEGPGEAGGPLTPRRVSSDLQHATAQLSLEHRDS

The entries are a selection whose mix differs from that of the whole data set. For some of these results: At the low end of the ranking the order means little. This is one part of the list. For some of these results: The exact form of the protein is not confirmed.

Regarding GTCATT, the binding signal in assay [1] stood at 0.967; in assay [2] it was 0.874; in assay [3] it was 0.926; in assay [4], 0.981.
Taken in the same sequence, the figures for CTGATT were 1.22, 1.18, 1.27 and 1.21.
On to AGGTCC, for which the binding signal worked out at 0.972 in assay [1], 0.955 in assay [2], 1.05 in assay [3] and 0.954 in assay [4].
On to TTGACG, for which the binding signal stood at 1.1 in assay [1], 1.12 in assay [2] and 0.989 in assay [3].
As for GGTAAC, the binding signal in assay [1] turned out to be 0.999; in assay [2], 0.957; in assay [3] it was 0.992; in assay [4], 1.
Turning to TAAGCA, the binding signal was 1.07 in assay [1], 0.961 in assay [2], 0.962 in assay [3] and 0.954 in assay [4].
Turning to CCGCAT, the binding signal in assay [2] worked out at 1.45; in assay [4], 1.46.
With TCTATC, the results for the binding signal in assay [1], in assay [2] and in assay [3] were 1.25, 1.21 and 1.16, respectively.
Take TAGTAG: the binding signal in assay [1] was determined as 0.964; in assay [2] it was 0.999; in assay [3], 0.94.
On the same counts, the results for GTAGTT are 0.996, 0.961 and 0.987.
For AGGTTT, the binding signal in assay [1] turned out to be 0.975; in assay [2], 1.04; in assay [3], 1.1.
With TGACAA, the results for the binding signal in assay [2] and in assay [4] were 1.25 and 1.23, respectively.
Consider ATGAAG, for which the binding signal in assay [1] came to 1.04; in assay [2], 1.08; in assay [3], 0.98.
Turning to TCCAAC, the binding signal in assay [1] was 1.25; in assay [2], 1.23; in assay [3], 1.2.
On the same counts, the results for GTTGAT are 1.11, 1.17 and 1.09.
For the sequence ACGGCT, the binding signal in assay [1] worked out at 1.08; in assay [2], 1.24; in assay [3], 1.05.
TAGCAA: the results for the binding signal in assay [1], in assay [2] and in assay [3] were 1.23, 1.24 and 1.23, respectively.
Regarding AACTCA, the figures for the binding signal in assay [2] and in assay [4] were 1.21 and 1.18, respectively.
In the case of CGTCTG, the binding signal in assay [2] was 1.15; in assay [4], 1.11.
On to CTGGAA, for which the binding signal in assay [2] stood at 1.2; in assay [4], 1.26.
For the sequence AGAACA, the binding signal in assay [1] amounted to 1.07; in assay [2] it was 0.961; in assay [3] it was 1.02.
Taken in the same sequence, the figures for TACTCA were 1.19, 1.27 and 1.19.
In the case of ACACCT, the binding signal is 1.15 in assay [2] and 1.14 in assay [4].
For ATTATC, the binding signal is 1.34 in assay [2] and 1.36 in assay [4].
Taken in the same sequence, the figures for CCTATA were 1.37 and 1.33.
On the same counts, the results for ACACTG are 1.13 and 1.17.
For the sequence TAATTA, the binding signal in assay [2] turned out to be 1.25; in assay [4], 1.24.
On to GTTCCT, for which the binding signal was 1.72 in assay [1], 1.57 in assay [2] and 1.79 in assay [3].
On the same counts, the results for TACACA are 1.21, 1.19 and 1.2.
CCTAGC: the binding signal in assay [1] came to 1.24; in assay [2] it was 1.2; in assay [3], 1.13.
On the same counts, the results for CGACGC are 1.16, 1.12 and 1.01.
As to ACTGAA, the binding signal in assay [2] came out at 1.2; in assay [4], 1.13.
As for TGCTCG, the binding signal was 1.18 in assay [1], 1.31 in assay [2] and 1.28 in assay [3].
Take TTAGCT: the binding signal in assay [2] turned out to be 1.28; in assay [4] it was 1.2.
Regarding CTATCC, the figures for the binding signal in assay [1], in assay [2] and in assay [3] were 1.38, 1.32 and 1.36, respectively.
On to CGCCTG, for which the values for the binding signal in assay [2] and in assay [4] were 1.18 and 0.945, respectively.
On to TCTCGT, for which the binding signal in assay [1] came to 1.24; in assay [2] it was 1.2; in assay [3] it was 1.27.
For the sequence GCCTAA, the binding signal in assay [2] was found to be 1.24; in assay [4], 1.22.
Turning to TTTTGG, the binding signal in assay [2] stood at 1.34; in assay [4] it was 1.47.
As to GCGTTT, the binding signal in assay [1] was 1.08; in assay [2], 1.08; in assay [3], 0.988.
Consider AAGGGC, for which the binding signal was found to be 1.07 in assay [2] and 1.06 in assay [4].
For the sequence CTCTAC, the binding signal in assay [2] was determined as 1.66; in assay [4], 1.45.
For CCCGCT, the binding signal in assay [2] and in assay [4] was 1.37 in each case.
As to CCTGCT, the binding signal was 1.6 in assay [2] and 1.53 in assay [4].
TAAAGG: the figures for the binding signal in assay [2] and in assay [4] were 0.978 and 0.971, respectively.
With CCACTC, the binding signal came out at 1.32 in assay [2] and 1.13 in assay [4].
Take CTAACT: the binding signal in assay [2] stood at 1.4; in assay [4] it was 1.32.
Taken in the same sequence, the figures for AATCTC were 1.22 and 1.27.
For the sequence AAGCCT, the binding signal in assay [2] was 1.16; in assay [4] it was 1.17.
Turning to CTTTGT, the binding signal in assay [2] is 1.29; in assay [4], 1.3.
Turning to CCCTGA, the binding signal in assay [2] came out at 1; in assay [4], 0.994.
As for TATAAT, the binding signal in assay [2] worked out at 1.15; in assay [4] it was 1.25.
For the sequence ACGAAT, the binding signal in assay [2] is 1.23; in assay [4], 1.17.
Turning to CGAACC, the binding signal in assay [2] was determined as 1.17; in assay [4], 1.12.
In the case of AATACG, the binding signal is 1.18 in assay [2] and 1.23 in assay [4].
For CGCGAT, the binding signal in assay [2] turned out to be 1.22; in assay [4], 0.895.
As to TAGATT, the values for the binding signal in assay [2] and in assay [4] were 1.2 and 1.37, respectively.
On the same counts, the results for TGAACA are 1.25 and 1.27.
With ATTGTA, the binding signal in assay [2] and in assay [4] was 1.27 in each case.
Consider ATATTT, for which the binding signal in assay [2] was found to be 1.49; in assay [4], 1.55.
For ACGGAT, the binding signal in assay [2] stood at 1.3; in assay [4] it was 1.11.
As for TTATTC, the binding signal in assay [2] worked out at 1.38; in assay [4], 1.45.
Turning to ATCTCA, the binding signal in assay [2] was 1.21; in assay [4], 1.07.
As to AAACTA, the binding signal in assay [2] turned out to be 1.23; in assay [4] it was 1.29.
As for GCATTT, the binding signal in assay [2] turned out to be 1.36; in assay [4] it was 1.31.
For the sequence CCTCGG, the results for the binding signal in assay [2] and in assay [4] were 1.25 and 1.23, respectively.
As for AATAGG, the results for the binding signal in assay [2] and in assay [4] were 1.11 and 1.21, respectively.
Take GTTCAA: the binding signal came to 1.07 in assay [2] and 1.14 in assay [4].
Taken in the same sequence, the figures for CCCCAG were 1.07 and 0.993.
Take ATACGC: the binding signal in assay [2] turned out to be 1.16; in assay [4], 1.18.
Taken in the same sequence, the figures for GCAAAT were 1.06 and 1.11.
Regarding TATCAC, the figures for the binding signal in assay [2] and in assay [4] were 1.28 and 1.19, respectively.
As for TTGTAG, the binding signal in assay [2] and in assay [4] was 1.14 each time.
On to CTCAAG, for which the binding signal turned out to be 1.12 in assay [2] and 1.27 in assay [4].
On the same counts, the results for CTGTGC are 1.2 and 1.12.
With TATAGG, the binding signal in assay [2] came to 1.13; in assay [4] it was 1.18.
Regarding CATGAC, the binding signal was found to be 1.2 in assay [2] and 1.18 in assay [4].
On to ATTGGG, for which the figures for the binding signal in assay [2] and in assay [4] were 1.17 and 1.31, respectively.
For the sequence ACTATT, the binding signal in assay [2] was determined as 1.19; in assay [4] it was 1.22.
Take GGGCTC: the binding signal in assay [2] was 1.21; in assay [4] it was 1.28.
On the same counts, the results for CCGAAT are 1.18 and 1.35.
On the same counts, the results for TTTTTG are 1.33 and 1.35.
CTGCAT: the figures for the binding signal in assay [2] and in assay [4] were 1.39 and 1.38, respectively.
In the case of CTTCGA, the binding signal is 1.38 in assay [2] and 1.41 in assay [4].
As for CTGATG, the binding signal in assay [2] is 1.55; in assay [4] it was 1.48.
CACTTT: the binding signal in assay [2] is 1.24; in assay [4] it was 1.3.
Turning to AAAAAT, the figures for the binding signal in assay [1], in assay [2] and in assay [4] were 1.31, 1.23 and 1.35, respectively.
In the case of TATCCA, the binding signal in assay [2] was found to be 1.28; in assay [4], 1.27.
Turning to CTCGAA, the binding signal in assay [1] worked out at 1.18; in assay [2] it was 1.15; in assay [4], 1.22.
TAGCTT: the results for the binding signal in assay [2] and in assay [4] were 1.16 and 1.29, respectively.
For AATAAA, the binding signal in assay [2] is 1.22; in assay [4] it was 1.29.
Regarding TGTGAT, the binding signal in assay [1] worked out at 1.01; in assay [2] it was 1.01; in assay [4], 0.958.
